Assay results published in paper PMC13042514.
The exact form of at least one protein or probe is not confirmed. For some assays here: A weaker result is weaker than the reference pair of the same experiment. For some assays here: Where a protein sequence is shown, tags need not be part of it. For some assays here: Results from cells or extracts need not show a direct contact.

The chains behind the UniProt entries cited, without tags or fusion partners. Where a name states a change or a piece, a line headed by the entry shows the natural chain unless it says otherwise.
UniProt P51116, whole entry: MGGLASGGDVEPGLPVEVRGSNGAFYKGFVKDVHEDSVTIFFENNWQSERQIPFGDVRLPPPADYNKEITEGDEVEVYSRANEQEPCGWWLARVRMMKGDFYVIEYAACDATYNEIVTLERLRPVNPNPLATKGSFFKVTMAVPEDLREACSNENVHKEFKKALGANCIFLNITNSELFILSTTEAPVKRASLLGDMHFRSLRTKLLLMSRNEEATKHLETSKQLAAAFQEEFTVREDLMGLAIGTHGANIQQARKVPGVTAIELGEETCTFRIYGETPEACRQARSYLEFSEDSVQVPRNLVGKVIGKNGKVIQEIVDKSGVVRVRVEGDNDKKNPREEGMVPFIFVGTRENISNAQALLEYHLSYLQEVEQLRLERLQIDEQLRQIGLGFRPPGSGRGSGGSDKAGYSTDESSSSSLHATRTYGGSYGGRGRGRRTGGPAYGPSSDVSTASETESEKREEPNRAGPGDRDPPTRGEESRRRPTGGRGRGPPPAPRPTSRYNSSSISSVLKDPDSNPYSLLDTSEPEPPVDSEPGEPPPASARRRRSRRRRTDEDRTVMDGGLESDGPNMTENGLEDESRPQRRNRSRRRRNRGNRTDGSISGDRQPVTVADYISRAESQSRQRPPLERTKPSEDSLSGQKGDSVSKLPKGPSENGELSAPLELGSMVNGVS
UniProt Q5T7N2: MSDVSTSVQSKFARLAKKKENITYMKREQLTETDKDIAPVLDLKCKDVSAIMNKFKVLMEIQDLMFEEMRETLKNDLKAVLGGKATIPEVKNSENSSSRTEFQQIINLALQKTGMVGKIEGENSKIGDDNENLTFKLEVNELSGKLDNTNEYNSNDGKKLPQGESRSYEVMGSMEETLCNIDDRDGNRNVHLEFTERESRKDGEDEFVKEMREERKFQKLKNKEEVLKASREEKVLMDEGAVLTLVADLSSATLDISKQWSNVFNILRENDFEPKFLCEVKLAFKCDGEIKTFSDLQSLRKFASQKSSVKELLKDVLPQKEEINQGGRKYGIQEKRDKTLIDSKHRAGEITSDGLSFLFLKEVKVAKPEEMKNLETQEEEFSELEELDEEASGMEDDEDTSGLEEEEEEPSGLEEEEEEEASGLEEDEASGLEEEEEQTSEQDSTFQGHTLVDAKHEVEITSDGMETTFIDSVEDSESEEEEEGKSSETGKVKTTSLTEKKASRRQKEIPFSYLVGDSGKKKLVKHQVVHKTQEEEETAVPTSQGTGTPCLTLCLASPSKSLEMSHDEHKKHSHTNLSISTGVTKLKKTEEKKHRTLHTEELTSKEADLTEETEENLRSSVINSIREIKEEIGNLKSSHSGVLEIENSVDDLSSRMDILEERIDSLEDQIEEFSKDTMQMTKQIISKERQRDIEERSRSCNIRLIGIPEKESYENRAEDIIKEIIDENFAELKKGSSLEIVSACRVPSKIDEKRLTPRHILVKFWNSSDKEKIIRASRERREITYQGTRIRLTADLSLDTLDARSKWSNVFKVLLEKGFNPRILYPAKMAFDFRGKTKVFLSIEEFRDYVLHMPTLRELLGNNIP

Columns and labels:
[1] = target: T1, FUBP3 (endogenous) (Homo sapiens) (UniProt Q96I24); assay: pull-down; details: pull-down: Pierce 20164 kit, 50 pmol RNA, 200 ug total protein, 4 C 30-60 min, protein in an extract, label: 3' desthiobiotin
T1 sequence (looked up, limits assumed): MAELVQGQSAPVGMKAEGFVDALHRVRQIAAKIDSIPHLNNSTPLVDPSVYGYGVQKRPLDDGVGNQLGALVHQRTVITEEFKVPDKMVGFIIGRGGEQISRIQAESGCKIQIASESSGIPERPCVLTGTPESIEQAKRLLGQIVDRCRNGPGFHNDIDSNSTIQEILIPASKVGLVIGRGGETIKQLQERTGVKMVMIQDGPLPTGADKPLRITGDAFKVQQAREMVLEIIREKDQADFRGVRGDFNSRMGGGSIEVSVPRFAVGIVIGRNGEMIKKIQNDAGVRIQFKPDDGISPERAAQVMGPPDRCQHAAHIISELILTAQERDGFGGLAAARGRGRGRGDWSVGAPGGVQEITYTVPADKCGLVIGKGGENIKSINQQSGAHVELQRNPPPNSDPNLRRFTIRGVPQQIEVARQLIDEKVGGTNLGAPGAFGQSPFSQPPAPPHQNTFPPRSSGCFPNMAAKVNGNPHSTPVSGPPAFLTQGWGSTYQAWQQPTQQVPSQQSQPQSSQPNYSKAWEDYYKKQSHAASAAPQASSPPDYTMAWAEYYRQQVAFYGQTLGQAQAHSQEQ

[2] = target: T2, DDX6 (endogenous) (Homo sapiens) (UniProt P26196); assay: pull-down; details: pull-down: Pierce 20164 kit, 50 pmol RNA, 200 ug total protein, 4 C 30-60 min, protein in an extract, label: 3' desthiobiotin
T2 sequence (looked up, limits assumed): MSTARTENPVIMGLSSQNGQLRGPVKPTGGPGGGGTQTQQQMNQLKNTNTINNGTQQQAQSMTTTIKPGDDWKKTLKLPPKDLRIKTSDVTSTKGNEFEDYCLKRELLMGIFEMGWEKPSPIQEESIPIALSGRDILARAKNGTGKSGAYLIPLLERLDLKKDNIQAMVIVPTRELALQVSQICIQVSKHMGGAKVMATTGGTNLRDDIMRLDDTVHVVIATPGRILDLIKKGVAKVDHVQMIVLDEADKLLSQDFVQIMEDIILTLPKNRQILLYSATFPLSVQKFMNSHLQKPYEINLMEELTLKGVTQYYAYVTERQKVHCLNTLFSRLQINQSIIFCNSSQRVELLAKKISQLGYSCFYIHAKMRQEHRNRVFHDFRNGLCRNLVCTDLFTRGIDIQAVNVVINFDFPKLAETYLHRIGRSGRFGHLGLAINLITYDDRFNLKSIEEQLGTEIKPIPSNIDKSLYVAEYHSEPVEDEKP

[3] = target: FXR2 (endogenous) (Homo sapiens) (UniProt P51116); assay: pull-down; details: pull-down: Pierce 20164 kit, 50 pmol RNA, 200 ug total protein, 4 C 30-60 min, protein in an extract, label: 3' desthiobiotin
GST-DDX6 = target: T3, GST-DDX6 (UniProt P26196); assay: EMSA; details: text: markedly reduced or absent, legend: not bound; EMSA: Beyotime GS606 kit binding buffer (composition not given), 1 ug protein and 1 uL of 2.5 nM biotin probe in 10 uL, on ice 10 min; recombinant protein; protein details: GST; label: biotin
T3 sequence (looked up, limits assumed): T2 sequence (looked up, limits assumed)

GST-L1TD1 = GST-L1TD1 (UniProt Q5T7N2); assay: EMSA; details: text: markedly reduced or absent, legend: not bound; EMSA: Beyotime GS606 kit binding buffer (composition not given), 1 ug protein and 1 uL of 2.5 nM biotin probe in 10 uL, on ice 10 min; recombinant protein; protein details: GST; label: biotin
GST-FXR2 = GST-FXR2 (UniProt P51116); assay: EMSA; details: text: markedly reduced or absent, legend: not bound; EMSA: Beyotime GS606 kit binding buffer (composition not given), 1 ug protein and 1 uL of 2.5 nM biotin probe in 10 uL, on ice 10 min; recombinant protein; protein details: GST; label: biotin
GST-FUBP3 = target: T4, GST-FUBP3 (UniProt Q96I24); assay: EMSA; details: text: markedly reduced or absent, legend: not bound; EMSA: Beyotime GS606 kit binding buffer (composition not given), 1 ug protein and 1 uL of 2.5 nM biotin probe in 10 uL, on ice 10 min; recombinant protein; protein details: GST; label: biotin
T4 sequence (looked up, limits assumed): T1 sequence (looked up, limits assumed)

[4] = target: L1TD1 (endogenous) (Homo sapiens) (UniProt Q5T7N2); assay: pull-down; details: hESC extract; m6A at positions 9 and 15; pull-down: Pierce 20164 kit, 50 pmol RNA, 200 ug total protein, 4 C 30-60 min; protein in an extract; label: 3' desthiobiotin
[5] = A549 extract, m6A bait bound instead of the control
[6] = A549 and hESC extract, m6A at positions 9 and 15

Measured: binding result

CGUCUCGGACUCGGACUGCU [ss-A (pull-down)]
binds more weakly: [1]; [5] | [2]; [5] | [3]; [5]

CGUCUCGGACUCGGACUGCU [ss-A (EMSA)]
binds more weakly: GST-DDX6 | GST-L1TD1 | GST-FXR2 | GST-FUBP3

CGUCUCGGACUCGGACUGCU [ss-m6A (pull-down)]
binds: [1]; [6] | [2]; [6] | [3]; [6] | [4]
